Publication PMC3781077
Where a chain is given by its changes, count along the chain named. These are yes or no findings as the source states them, for the method shown. In cells and extracts the contact can be indirect. Some results given as binding are weak or reduced against the parent protein; the word gives no strength. For part of these data: Sequences can lack the tags named with a protein.

By UniProt entry, the sequences of proteins in these tests, tags left out.
UniProt P84022: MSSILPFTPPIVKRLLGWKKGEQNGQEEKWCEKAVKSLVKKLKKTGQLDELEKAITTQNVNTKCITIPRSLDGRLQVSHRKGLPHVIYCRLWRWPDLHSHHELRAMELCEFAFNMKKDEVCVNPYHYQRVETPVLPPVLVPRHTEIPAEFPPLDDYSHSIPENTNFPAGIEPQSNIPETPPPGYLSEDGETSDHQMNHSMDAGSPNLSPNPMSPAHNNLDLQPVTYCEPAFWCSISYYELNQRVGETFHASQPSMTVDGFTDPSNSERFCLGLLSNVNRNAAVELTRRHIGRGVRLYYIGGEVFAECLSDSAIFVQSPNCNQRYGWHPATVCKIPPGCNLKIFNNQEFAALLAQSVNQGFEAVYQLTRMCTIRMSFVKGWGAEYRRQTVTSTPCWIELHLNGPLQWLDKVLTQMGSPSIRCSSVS

Legend:
Test in all cases: co-IP; HUVEC lysates (500 ug protein; wildtype, Ad-GFP, Ad-Trx or Ad-TD cells, with or without ox-LDL stimulation) immunoprecipitated with 2 ug Trx antibody overnight at 4 C, protein A and protein G-sepharose; immunoblot for Smad3 and pSmad3; normal rabbit IgG as negative control
[1] = target: T1, thioredoxin1 overexpressed from adenovirus (Ad-Trx) (human) (UniProt P10599)
T1 sequence: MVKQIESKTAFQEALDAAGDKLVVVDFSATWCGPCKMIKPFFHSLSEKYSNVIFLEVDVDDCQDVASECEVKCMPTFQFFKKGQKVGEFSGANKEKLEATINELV

[2] = target: T2, thioredoxin1 (endogenous in HUVECs) (human (endogenous in HUVECs)) (UniProt P10599)
T2 sequence: T1 sequence

[3] = target: T3, redox-inactive dominant-negative mutant thioredoxin1 (TD; C32S/C35S) overexpressed from adenovirus (Ad-TD) (human) (UniProt P10599)
T3 sequence: T1 sequence with C32S, C35S

binding [1]: binds | binding [2]: binds | binding [3]: binds
Substance: Smad3 (endogenous in HUVECs) (from UniProt P84022 1-425)
